PubChem BioAssay AID686937 | Drosophila RNAi Screening Center | 2013
Purpose: 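Knock-downs that reduce output of a secreted reporter enzyme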 (primary screen). Cells: Drosophila S2 cells expressing secreted horseradish peroxidase. Knock-down reagent: long dsRNA against Drosophila genes. Time to read-out: about 5.5 days (5 days dsRNA, then 12 h reporter induction). Challenge: reporter expression induced after 5 days of dsRNA, read 12 h later; inducer not stated. Measurement: 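After 5 days of dsRNA and 12 h of reporter induction, medium peroxidase read by chemiluminescence and scored as per-plate z-score; higher values mean more reporter released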. Reading the numbers: z-score: higher = more reporter secreted into medium.
In all, the deposit lists about 23,000 reagents; shown is an unselected part of those that have a named target and a result. 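Reduced-secretion tags in replicate 1 do not always agree with the z-scores; no criterion for assigning the tags was given.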 The numbers tell different reagents against one gene apart. Names joined by + are all predicted targets of the reagent. Not stated in the record: the amount of reagent.

target	dsRNA no.	z-score, replicate 1	z-score, replicate 2	z-score, replicate 3	z-score, replicate 4	phenotype, replicate 1
Taf6 (GeneID 40134)	1	0.25	-0.83			
Lst8 (GeneID 31903)	1	0.52	0.38			
CG5388 (GeneID 42612)	1	0.34	0.31			
Jon25Bi (GeneID 33708)	1	0.25	0.24			
CG13484 (GeneID 39560)	1	-0.29	-0.1			
CG13075 (GeneID 39756)	1	0.34	0.41			
gish (GeneID 49701)	1	0.62	0.37			
CG32485 (GeneID 38363)	1	-0.19	0.14			
Taldo (GeneID 37804)	1	0.28	0.26			
CG30484 (GeneID 36534)	1	0.21	0.27			
CG13840 (GeneID 42705)	1	0.76	0.56			
beat-IIIc (GeneID 35037)	1	0.72	0.1			
beat-IIIc (GeneID 35037)	2	-0.17	0.02			
Osi5 (GeneID 40759)	1	0.12	-0.02			
COX6AL2 + Ir75d	1	0.15	0.5			
CG9932 (GeneID 34701)	1	0.56	0.39			
CG34126 (GeneID 318872)	1	0.16	0.42			
CG34126 (GeneID 318872)	2	0.14	0.06			
kon (GeneID 35104)	1	0.56	0.35			
CG4025 (GeneID 31177)	1	0.27	0.28			
CG14868 (GeneID 41875)	1	-1.49	-1.02			
SmydA-1 (GeneID 36581)	1	0.17	0.21			
lncRNA:CR32730 (GeneID 3772297)	1	1.36	0.49			
CG31068 (GeneID 318578)	1	0.06	-0.01			
CG31128 (GeneID 318601)	1	0.27	0.28			
CG42245 + MEP-1	1	0.75	0.32			
CG42245 + MEP-1	2	0.26	0.28			
CG42245 + MEP-1	3	-0.62	0.36			
CG12259 (GeneID 43347)	1	0.24	-0.17			
AGO2 (GeneID 39683)	1	-0.33	-0.63			
AGO2 (GeneID 39683)	2	-2.27	0.35			reduced secretion
CG12883 (GeneID 43326)	1	0.21	0.33			
NUCB1 (GeneID 39978)	1	-0.06	-1.53			reduced secretion
Zw10 (GeneID 47874)	1	0.05	-0.09			
CG31041 (GeneID 318567)	1	0.34	0.02			
Obp99b (GeneID 43497)	1	-0.47	-0.68			
CG12991 (GeneID 32734)	1	0.36	0.43			
CG34244 (GeneID 5740216)	1	0.45	0.46			
CG15888 (GeneID 41630)	1	0.47	-0.17			

The list goes on; the last 8 above are carried over.
target	dsRNA no.	z-score, replicate 1	z-score, replicate 2	z-score, replicate 3	z-score, replicate 4	phenotype, replicate 1
CG12883 (GeneID 43326)	1	0.21	0.33			
NUCB1 (GeneID 39978)	1	-0.06	-1.53			reduced secretion
Zw10 (GeneID 47874)	1	0.05	-0.09			
CG31041 (GeneID 318567)	1	0.34	0.02			
Obp99b (GeneID 43497)	1	-0.47	-0.68			
CG12991 (GeneID 32734)	1	0.36	0.43			
CG34244 (GeneID 5740216)	1	0.45	0.46			
CG15888 (GeneID 41630)	1	0.47	-0.17			
CG33331 + CG33332	1	-0.21	-0.24			
RpS12 (GeneID 39480)	1	-3.91	-3.81			reduced secretion
Sox100B (GeneID 45039)	1	-0.7	-0.34			
Sox100B (GeneID 45039)	2	0.29	0.27			
beat-IIb (GeneID 42082)	1	-1.07	-1.17			
beat-IIb (GeneID 42082)	2	0.48	0.64			
beat-IIb (GeneID 42082)	3	0.48	0.07			
Pglym87 (GeneID 46246)	1	0.44	0.54			
CG5382 (GeneID 42618)	1	-0.05	-0.11			
Sgf11 (GeneID 40035)	1	0.57	0.41			
CG17780 (GeneID 42914)	1	0.24	0.27			
CG2145 (GeneID 32027)	1	0.15	0.08			
wap (GeneID 33131)	1	0.24	0.15			
MED14 (GeneID 38073)	1	0.17	0.29			
kek6 (GeneID 43729)	1	0.53	0.24			
CG31827 + CG18478	1	0.11	0.25			
Acsx4 (GeneID 42355)	1	0.2	0.45			
HDAC4 (GeneID 32278)	1	0.19	0.23			
Gadd45 (GeneID 35646)	1	0.14	0.23			
CG13126 (GeneID 34323)	1	0.55	0.37			
CG15571 (GeneID 31365)	1	0.45	0.23			
vret (GeneID 42695)	1	0.35	0.3			
shakB (GeneID 33062)	1	0.22	0.29			
shakB (GeneID 33062)	2	0.06	-0.2	0.21	0.34	
shakB (GeneID 33062)	3	0.67	0.53			
shakB (GeneID 33062)	4	-0.23	0.27			
shakB (GeneID 33062)	5	0.01	1.45			
shakB (GeneID 33062)	6	-0.09	-0.43			
ppk19 (GeneID 43489)	1	0.31	0.36			
CG4537 (GeneID 34306)	1	0.46	0.6			
CG10748 (GeneID 39469)	1	0.26	0.15			
Fum1 (GeneID 31605)	1	0.38	0.54	1.55	0.65	
CG34202 (GeneID 5740498)	1	1.2	0.86			
CG3168 (GeneID 31612)	1	-0.94	-0.07			
dar1 (GeneID 38436)	1	0.27	-0.33			
dar1 (GeneID 38436)	2	-0.03	-0.14			
hook (GeneID 35169)	1	0.29	0.17			
CG14451 (GeneID 40488)	1	0.44	0.4			
mRpL1 (GeneID 40980)	1	-2.25	-0.44			
Adat1 (GeneID 34787)	1	-0.31	-0.12			
Sp1 (GeneID 31913)	1	-0.03	0.08			
Sp1 (GeneID 31913)	2	0.36	0.16			
CG8679 (GeneID 35395)	1	0.23	0.26			
